Results deposited as PubChem BioAssay AID743454 (Peter MacCallum Cancer Centre, 2014)
Aim: 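Search for knock-downs that restore vorinostat killing in resistant colon cancer cells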 (primary screen). Cells: human HCT116-VR colon cancer cells, selected for vorinostat resistance. Reagents: siRNA pool against human genes, 40 nM siRNA pool. Timing: vorinostat for 24 h, read-out about 72 h after transfection. Treatment: vorinostat at 2.5 µM final. Measured: 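Two measures, CellTiter-Fluor viability and luminescent caspase 3/7 activity, each as fold change against same-plate mock wells, mean of duplicates, then screen-wide robust z-score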. Scale: viability robust z-score: higher = more viable cells than screen typical; caspase robust z-score: higher = more caspase 3/7 activity than screen typical. Active means: 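Hits are knock-downs in viability class RV1/RV2 or caspase class CA1/CA2, excluding ones that killed cells in the no-drug cell-count arm; hits then retested with single siRNAs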.
In all, the deposit lists about 18,000 reagents; below is a random part of them. Over the whole deposit, 450 (2.5%) got an active call. 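Single biological run; no consistent viability z cut-off exists, so the class columns, not z-scores, define the calls.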

gene knocked down	viability hit class	caspase hit class	viability robust z-score	caspase robust z-score	outcome
ASZ1	no change	no change	0.64	0.1	inactive
LIX1L (limb and CNS expressed 1 like)	no change	no change	0.7	-1.16	inactive
SUPT4H1 (SPT4 homolog, DSIF elongation factor subunit)	no change	no change	-1.02	-0.08	inactive
GYPC (glycophorin C (Gerbich blood group))	no change	no change	-0.73	-0.84	inactive
MYH2 (myosin heavy chain 2)	no change	no change	0.46	0.08	inactive
PRRT1 (proline rich transmembrane protein 1)	no change	no change	-0.36	3.35	inactive
F9 (coagulation factor IX)	no change	no change	1.36	-0.4	inactive
PRKY (protein kinase Y-linked (pseudogene))	no change	no change	-0.4	0.15	inactive
ZIM3 (zinc finger imprinted 3)	no change	no change	1.54	-0.6	inactive
FUT2 (fucosyltransferase 2 (H blood group))	no change	no change	0.71	-0.64	inactive
KCNJ13 (potassium inwardly rectifying channel subfamily J member 13)	no change	no change	0.52	0.31	inactive
ARID1B (AT-rich interaction domain 1B)	no change	no change	-0.84	1.22	inactive
ORAI2 (ORAI calcium release-activated calcium modulator 2)	no change	no change	-1.58	-0.95	inactive
SRY (sex determining region Y)	no change	no change	0.24	-0.04	inactive
KLHL32 (kelch like family member 32)	no change	no change	-1.97	-0.29	inactive
NRDE2 (NRDE-2, necessary for RNA interference, domain containing)	no change	no change	-1.33	1.95	inactive
CLRN3 (clarin 3)	no change	no change	-0.36	-0.18	inactive
SGTB	no change	no change	0.68	-0.68	inactive
ZNF415 (zinc finger protein 415)	no change	no change	-0.42	1.19	inactive
STBD1 (starch binding domain 1)	no change	no change	-0.5	-0.72	inactive
PPM1K (protein phosphatase, Mg2+/Mn2+ dependent 1K)	no change	no change	-0.24	-0.22	inactive
PATL1 (PAT1 homolog 1, processing body mRNA decay factor)	no change	no change	-1.16	1.59	inactive
DIP2B (DIP2 acetate--CoA ligase B (putative))	no change	no change	-1.18	0.44	inactive
EEF2K (eukaryotic elongation factor 2 kinase)	no change	no change	-0.76	0.85	inactive
DNTTIP1 (deoxynucleotidyltransferase terminal interacting protein 1)	no change	no change	-0.61	1.15	inactive
CACFD1 (calcium channel flower domain containing 1)	no change	no change	0.06	-0.59	inactive
RASGRF1 (Ras protein specific guanine nucleotide releasing factor 1)	no change	no change	-0.36	-0.98	inactive
EIF1 (eukaryotic translation initiation factor 1)	no change	no change	0.59	-0.52	inactive
MFSD6 (major facilitator superfamily domain containing 6)	no change	no change	0.49	-0.18	inactive
KCND2 (potassium voltage-gated channel subfamily D member 2)	no change	no change	-0.86	-0.59	inactive
SELENOT (selenoprotein T)	no change	no change	0.48	1.82	inactive
SCAF4 (SR-related CTD associated factor 4)	no change	no change	0.06	-0.68	inactive
RTTN (rotatin)	no change	no change	0.14	-1.01	inactive
ANKLE1 (ankyrin repeat and LEM domain containing 1)	no change	no change	1.22	-0.05	inactive
MYH8 (myosin heavy chain 8)	no change	no change	-0.52	-0.98	inactive
UBAC2 (UBA domain containing 2)	no change	no change	1.44	0.34	inactive
NUP62CL (nucleoporin 62 C-terminal like)	no change	no change	1.34	0.16	inactive
NDUFB4 (NADH:ubiquinone oxidoreductase subunit B4)	no change	no change	0.8	-0.49	inactive
PIGG	no change	no change	1.52	-0.49	inactive
TECR (trans-2,3-enoyl-CoA reductase)	no change	no change	-0.23	0.26	inactive
UGDH (UDP-glucose 6-dehydrogenase)	no change	no change	-1.45	0.08	inactive
PITPNM2 (phosphatidylinositol transfer protein membrane associated 2)	no change	no change	-0.74	1.7	inactive
ZNF467 (zinc finger protein 467)	no change	no change	-1.06	0.6	inactive
SMC3 (structural maintenance of chromosomes 3)	no change	no change	0.64	2	inactive
MED22 (mediator complex subunit 22)	no change	no change	-0.1	1.21	inactive
MARCHF7 (membrane associated ring-CH-type finger 7)	no change	no change	-0.12	1.7	inactive
SH3RF1 (SH3 domain containing ring finger 1)	no change	no change	-0.46	-0.68	inactive
HES4 (hes family bHLH transcription factor 4)	no change	no change	-2.29	2.5	inactive
FBXO30 (F-box protein 30)	no change	no change	-2.67	1.19	inactive
H3C12 (H3 clustered histone 12)	no change	no change	-1.74	-0.3	inactive
RAB44 (RAB44, member RAS oncogene family)	no change	no change	1.59	-0.74	inactive
CLPS (colipase)	no change	no change	-0.12	-1.07	inactive
KXD1 (KxDL motif containing 1)	no change	no change	-0.98	-0.7	inactive
PCDHB4 (protocadherin beta 4)	no change	no change	-0.97	-0.23	inactive
ONECUT1 (one cut homeobox 1)	no change	no change	1.46	-0.16	inactive
AP4M1 (adaptor related protein complex 4 subunit mu 1)	no change	no change	0.88	-0.92	inactive
SELENOK (selenoprotein K)	no change	no change	0.94	-0.82	inactive
PSG8 (pregnancy specific beta-1-glycoprotein 8)	no change	no change	-0.39	2.7	inactive
UBE2Q2 (ubiquitin conjugating enzyme E2 Q2)	no change	no change	-0.04	0.8	inactive
CHST13 (carbohydrate sulfotransferase 13)	no change	no change	-0.39	0.6	inactive
PFKL (phosphofructokinase, liver type)	no change	CA2 (caspase activation)	-3.39	6.05	active
LAMTOR2 (late endosomal/lysosomal adaptor, MAPK and MTOR activator 2)	RV2 (reduced viability)	no change	-5.54	2.19	active
CNTF (ciliary neurotrophic factor)	no change	no change	0.46	-0.23	inactive
S100G (S100 calcium binding protein G)	no change	no change	0.72	0.38	inactive
IFT88 (intraflagellar transport 88)	no change	no change	0.88	-0.44	inactive
DET1 (DET1 partner of COP1 E3 ubiquitin ligase)	no change	no change	-0.72	2.15	inactive
UPK3B (uroplakin 3B)	no change	no change	-1.23	2.62	inactive
CEACAM5 (CEA cell adhesion molecule 5)	no change	no change	1.36	0.45	inactive
TNNI2 (troponin I2, fast skeletal type)	no change	no change	-0.52	2.62	inactive
IL12RB1 (interleukin 12 receptor subunit beta 1)	no change	no change	0.52	0.37	inactive
CCL13 (C-C motif chemokine ligand 13)	no change	no change	-0.36	0.41	inactive
BAGE (B melanoma antigen)	no change	no change	1	-0.97	inactive
FATE1 (fetal and adult testis expressed 1)	no change	no change	-3.43	1.27	inactive

Hits, among the entries above:
gene knocked down	viability hit class	caspase hit class	viability robust z-score	caspase robust z-score	outcome
PFKL (phosphofructokinase, liver type)	no change	CA2 (caspase activation)	-3.39	6.05	active
LAMTOR2 (late endosomal/lysosomal adaptor, MAPK and MTOR activator 2)	RV2 (reduced viability)	no change	-5.54	2.19	active
